# Laboratory results from patent publication US20100168025A1 (TEXAS A AND M UNIVERSITY SYSTEM, published 2010).
# The chains behind the UniProt entries cited, without tags or fusion partners. Where a name states a change or a piece, a line headed by the entry shows the natural chain unless it says otherwise.
# UniProt P08648: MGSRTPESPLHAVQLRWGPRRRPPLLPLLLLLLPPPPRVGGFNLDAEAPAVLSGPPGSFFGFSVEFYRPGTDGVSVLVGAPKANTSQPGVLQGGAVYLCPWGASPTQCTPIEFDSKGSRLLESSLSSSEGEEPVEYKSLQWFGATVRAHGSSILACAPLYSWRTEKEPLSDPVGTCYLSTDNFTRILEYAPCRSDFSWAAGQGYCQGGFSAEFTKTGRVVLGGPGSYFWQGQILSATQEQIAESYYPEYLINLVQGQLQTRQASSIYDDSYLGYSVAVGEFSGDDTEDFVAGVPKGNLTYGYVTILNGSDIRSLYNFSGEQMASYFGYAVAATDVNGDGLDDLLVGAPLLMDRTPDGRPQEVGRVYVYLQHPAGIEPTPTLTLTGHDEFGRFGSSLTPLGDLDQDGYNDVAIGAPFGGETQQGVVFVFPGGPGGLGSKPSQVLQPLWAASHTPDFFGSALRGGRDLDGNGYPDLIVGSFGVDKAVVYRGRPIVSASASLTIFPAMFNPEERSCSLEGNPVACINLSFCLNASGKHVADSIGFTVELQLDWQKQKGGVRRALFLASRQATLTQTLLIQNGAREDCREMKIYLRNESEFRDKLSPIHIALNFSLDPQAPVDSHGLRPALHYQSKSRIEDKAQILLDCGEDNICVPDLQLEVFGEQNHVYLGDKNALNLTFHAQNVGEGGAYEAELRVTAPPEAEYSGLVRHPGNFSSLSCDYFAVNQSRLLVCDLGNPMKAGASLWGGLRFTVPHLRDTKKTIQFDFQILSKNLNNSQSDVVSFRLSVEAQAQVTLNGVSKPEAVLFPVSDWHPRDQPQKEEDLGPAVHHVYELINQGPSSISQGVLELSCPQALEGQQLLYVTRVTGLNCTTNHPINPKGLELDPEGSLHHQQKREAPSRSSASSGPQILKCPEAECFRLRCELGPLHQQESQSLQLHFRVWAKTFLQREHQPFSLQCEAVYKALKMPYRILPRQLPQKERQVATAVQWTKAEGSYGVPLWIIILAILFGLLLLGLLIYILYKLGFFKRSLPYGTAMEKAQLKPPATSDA
# Results are given in words; binding and its absence hold for the method and conditions named. Some binding calls cover weakened binding; strength is not graded here.
# B1: perlecan Domain V (recombinant, C-terminal 6×His tag) (ligand)
# chain: EIKITFRPDSADGMLLYNGQKRVPGSPTNLANRQPDFISFGLVGGRPEFRFDAGSGMATIRHPTPLALGHFHTVTLLRSLTQGSLIVGDLAPVNGTSQGKFQGLDLNEELYLGGYPDYGAIPKAGLSSGFIGCVRELRIQGEEIVFHDLNLTAHGISHCPTCRDRPCQNGGQCHDSESSSYVCVCPAGFTGSRCEHSQALHCHPEACGPDATCVNRPDGRGYTCRCHLGRSGLRCEEGVTVTTPSLSGAGSYLALPALTNTHHELRLDVEFKPLAPDGVLLFSGGKSGPVEDFVSLAMVGGHLEFRYELGSGLAVLRSAEPLALGRWHRVSAERLNKDGSLRVNGGRPVLRSSPGKSQGLNLHTLLYLGGVEPSVPLSPATNMSAHFRGCVGEVSVNGKRLDLTYSFLGSQGIGQCYDSSPCERQPCQHGATCMPAGEYEFQCLCRDGFKGDLCEHEENPCQLREPCLHGGTCQGTRCLCLPGFSGPRCQQGSGHGIAESDWHLEGSGGNDAPGQYGAYFHDDGFLAFPGHVFSRSLPEVPETIELEVRTSTASGLLLWQGVEVGEAGQGKDFISLGLQDGHLVFRYQLGSGEARLVSEDPINDGEWHRVTALREGRRGSIQVDGEELVSGRSPGPNVAVNAKGSVYIGGAPDVATLTGGRFSSGITGCVKNLVLHSARPGAPPPQPLDLQHRAQAGANTRPCPSHHHHHH
# notes: domain: domain V; Secreted from transfected 293FT cells and purified on Ni beads; also called DV; endorepellin
# Experiments:
# [1] = molecular target: recombinant α5β1 integrin (immobilized, ELISA) (UniProt P08648); assay: summary sentence of Example 25 (ELISA, adhesion, migration, tube assays)
# [2] = molecular target: recombinant α5β1 integrin (immobilized, ELISA) (UniProt P08648); assay: ELISA, DV on immobilized α5β1 integrin (FIG. 13B)
binder,measurement,setting,value
B1,binding,[1],binds
same,binding,[2],binds
